These are yes or no findings as the source states them, for the method shown. In cells and extracts the contact can be indirect. A yes stands for co-enrichment or nearness to the bait. Other partners may have been found. Tags and fused reporters may be left off the sequences shown.
What was measured:
[1] = target: MAC(BirA-HA-Strep-tagII)-BNIP3; test: proximity labelling; BioID: doxycycline-inducible BirA bait (48 h) in cells transduced with FBXL4-HA; 50 uM biotin 24 h; MLN4924 24 h where indicated; RIPA lysis; streptavidin magnetic beads; immunoblot
[2] = target: MAC(BirA-HA-Strep-tagII)-NIX (UniProt O60238); test: as above

Amino acid sequences for entries named in this document (tags omitted).
UniProt O60238: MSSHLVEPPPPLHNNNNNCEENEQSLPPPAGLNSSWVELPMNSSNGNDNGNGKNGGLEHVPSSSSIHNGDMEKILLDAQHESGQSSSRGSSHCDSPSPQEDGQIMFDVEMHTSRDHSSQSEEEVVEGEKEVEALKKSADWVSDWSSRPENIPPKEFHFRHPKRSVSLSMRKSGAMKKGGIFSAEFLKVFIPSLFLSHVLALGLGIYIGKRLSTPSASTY

B1: FBXL4 tagged with HA at its C-terminus, wild type (protein, UniProt Q9UKA2 1-621)
chain: MSPVFPMLTVLTMFYYICLRRRARTATRGEMMNTHRAIESNSQTSPLNAEVVQYAKEVVDFSSHYGSENSMSYTMWNLAGVPNVFPSSGDFTQTAVFRTYGTWWDQCPSASLPFKRTPPNFQSQDYVELTFEQQVYPTAVHVLETYHPGAVIRILACSANPYSPNPPAEVRWEILWSERPTKVNASQARQFKPCIKQINFPTNLIRLEVNSSLLEYYTELDAVVLHGVKDKPVLSLKTSLIDMNDIEDDAYAEKDGCGMDSLNKKFSSAVLGEGPNNGYFDKLPYELIQLILNHLTLPDLCRLAQTCKLLSQHCCDPLQYIHLNLQPYWAKLDDTSLEFLQSRCTLVQWLNLSWTGNRGFISVAGFSRFLKVCGSELVRLELSCSHFLNETCLEVISEMCPNLQALNLSSCDKLPPQAFNHIAKLCSLKRLVLYRTKVEQTALLSILNFCSELQHLSLGSCVMIEDYDVIASMIGAKCKKLRTLDLWRCKNITENGIAELASGCPLLEELDLGWCPTLQSSTGCFTRLAHQLPNLQKLFLTANRSVCDTDIDELACNCTRLQQLDILGTRMVSPASLRKLLESCKDLSLLDVSFCSQIDNRAVLELNASFPKVFIKKSFTQ
For B1, the binding [1] was “binds” and the binding [2] was “binds”.

Reference: PMC10308361
